System: P20.1 antibody-Sepharose
Assay: Pull-down efficiency with P20.1 antibody-immobilized beads
Assay type: binding, mouse
Conditions: supernatant after 20 μL P20.1 antibody-Sepharose per 1 mL, 4° C., 1 hour
Method: Three different hGH-γC-P4 fusion proteins, which have P4×1, P4×3 or P4×5, were separately expressed in HEK293T cells. The fusion protein in the separate cell culture supernatant was quantified by the sandwich ELISA (which adopts a system of hGH antibody-mediated capture+anti-BAS serum-mediated detection, and is not dependent on the responsiveness to the P20.1 antibody) (before pull-down). Aside from this, to 1 mL of the cell culture supernatant, 20 μL of the P20.1 antibody-Sepharose (bead form) was added, and then the mixture was allowed to react at 4° C. for 1 hour. After the beads were precipitated by centrifugation, the fusion protein in the supernatant was quantified by the sandwich ELISA (which adopts a system of hGH antibody-mediated capture+anti-BAS serum-mediated detection, and is not dependent on the responsiveness to the P20.1 antibody) (after pull-down). The fusion protein purified with Ni-NTA agarose was used as a standard, and based on the standard curve, the fusion protein concentrations before and after pull-down by the P20.1 antibody were determined. As is clear from Table 4, 3 to 5 repeats of the P4 sequence achieves the binding efficiency of about 80%.

Row | Substance | Fusion protein After pull-down [µg/mL]
1 | P4 × 3: hGH/fibrinogen γC fusion protein tagged with 3 repeats of the P4 sequence GYPGQV | 0.22
2 | P4 × 5: hGH/fibrinogen γC fusion protein tagged with 5 repeats of the P4 sequence GYPGQV | 0.17
3 | P4: hGH/fibrinogen γC fusion protein tagged with 1 repeat of the P4 sequence GYPGQV | 0.6
